Measurements reported in patent publication US11453642B2, “Oxygenated amino- or ammonium-containing sulfonic acid, phosphonic acid and carboxylic acid derivatives and their medical use” (GRI BIO, INC., priority 2011, dated 2022).
Some entries share one result that the patent states for a list of compounds.

System: allergic contact dermatitis response in mice
Test: Allergic contact dermatitis (TDI) model in mice, mouse ear swelling test
Type: in vivo
Conditions: 100 mg/kg oral, administered 1 h or 4 h before challenge
Procedure: The anti-inflammatory and anti-allergic effects of compounds 1a and 1c were assessed in a mouse model of allergic contact dermatitis, a response driven primarily by T helper type 2 (Th2) cells. […] In this model, an allergic dermatitis response is obtained by sensitizing mice to TDI and subsequently challenging them with antigen by topical administration onto the ears. A quantitative assessment of anti-inflammatory and anti-allergic effects of topically or orally administered test compounds is possible by measuring the resulting ear swelling. The advantages of the allergic contact dermatitis model (Zöllner et al., Bioessays 26:693-6 (2004)) are reproducibility and reliability (>90% of BALB/c mice respond to sensitization), a short induction protocol, quantitative assessment by measuring ear thickness, atopic dermatitis-like skin lesions can be induced, and clinically relevant pharmaceuticals, such as corticosteroids, calcineurin-inhibitors and PDE4-inhibitors, are effective in this model.
Female BALB/c-mice were obtained from Charles River (Sulzfeld, Germany) at age 8 weeks. All animals were housed in groups of eight per cage at 22° C. with a 12 h light/dark-cycle, Water and a standard diet (Altromin, Lage/Lippe, Germany) were available ad libitum. […]
Mean and standard error of the mean (SEM) were calculated from individual ear edema values. […]

CCCCCCCCCCCCCCCCN(C)CC(O)CS(=O)(=O)O (stereo not shown) [Compound 1a, 2-hydroxy-3-(N-methylhexadecylammonio)propane-sulfonate]
reduction of ear swelling: up to 73%
